# In the supplement of paper PMC10663445:
# Structures can show the parent of a compound that is named as a salt. This is one part of the list. Most values come without repeats; read them as rough.
# Tested on: hsa-miR-132-3p
# Assay: miR-132-3p level in NGN2-iNs after compound treatment (TMM-normalised, ComBat batch-corrected) (batch-corrected normalised expression (arbitrary units)); higher = higher miR-132-3p expression
# Details: 10 µM; 24 h; human iPSC-derived NGN2 neurons (BR43)
row,SMILES,miR-132-3p level in NGN2-iNs
1,CCC[C@@H]1C[C@@H](C(=O)N[C@@H]([C@H]2O[C@H](SC)[C@H](O)[C@@H](O)[C@H]2O)[C@H](C)Cl)N(C)C1 [Clindamycin],-0.286
2,CCC[C@@H]1C[C@@H](C(=O)N[C@@H]([C@H]2O[C@H](SC)[C@H](O)[C@@H](O)[C@H]2O)[C@H](C)Cl)N(C)C1 [Clindamycin HCl],-0.0577
3,O=C(N[C@H](CO)[C@H](O)c1ccc([N+](=O)[O-])cc1)C(Cl)Cl [Chloramphenicol],0.653
4,C[S+]([O-])c1ccc(-c2nc(-c3ccc(F)cc3)c(-c3ccncc3)[nH]2)cc1 (stereo unspecified),0.837
5,COc1ccccc1Oc1c(NS(=O)(=O)c2ccc(C(C)(C)C)cc2)nc(-c2ncccn2)nc1OCCO [Bosentan Hydrate],0.937
6,Cc1cc(=O)[nH]c(=S)[nH]1 [Methylthiouracil],0.561
7,Nc1nc(CC(=O)Nc2ccc(CCNC[C@H](O)c3ccccc3)cc2)cs1 [Mirabegron],0.376
8,CC[C@]1(O)C[C@H]2CN(CCc3c([nH]c4ccccc34)[C@@](C(=O)OC)(c3cc4c(cc3OC)N(C=O)[C@H]3[C@@](O)(C(=O)OC)[C@H](OC(C)=O)[C@]5(CC)C=CCN6CC[C@]43[C@@H]65)C2)C1 [Vincristine sulfate],1.68
9,COc1ccccc1OCC(O)CO (stereo unspecified) [Guaifenesin],0.15
10,Oc1ccc(/C=C/c2cc(O)cc(O)c2)cc1 [Resveratrol],0.091
11,CCN(CC)CCNC(=O)c1c(C)[nH]c(/C=C2\C(=O)Nc3ccc(F)cc32)c1C [Sunitinib Malate],0.404
12,COc1ccc(/C=C/C(=O)Nc2ccccc2C(=O)O)cc1OC [Tranilast],-0.00792
13,CCOc1cc2ncc(C#N)c(Nc3ccc(F)c(Cl)c3)c2cc1NC(=O)/C=C/CN(C)C [Pelitinib (EKB-569)],2
14,Cc1c(N(C)C)c(=O)n(-c2ccccc2)n1C [Amidopyrine],-0.928
15,Cc1cc(/C=C/C#N)cc(C)c1Nc1ccnc(Nc2ccc(C#N)cc2)n1 [Rilpivirine],-0.24
16,O=C1c2c(O)cccc2C([C@@H]2O[C@H](CO)[C@@H](O)[C@H](O)[C@H]2O)c2cc(CO)cc(O)c21 (stereo partly specified) [Aloin],-0.389
17,O=C(Nc1cccc(C(F)(F)F)c1)Nc1cc(S(=O)(=O)NC2CC2)ccc1-c1ccsc1,-0.338
18,CC(C(=O)O)c1ccc2c(c1)[nH]c1ccc(Cl)cc12 (stereo unspecified) [Carprofen],0.795

# A stretch taken from the entries so far:
row,SMILES,miR-132-3p level in NGN2-iNs
2,CCC[C@@H]1C[C@@H](C(=O)N[C@@H]([C@H]2O[C@H](SC)[C@H](O)[C@@H](O)[C@H]2O)[C@H](C)Cl)N(C)C1 [Clindamycin HCl],-0.0577
3,O=C(N[C@H](CO)[C@H](O)c1ccc([N+](=O)[O-])cc1)C(Cl)Cl [Chloramphenicol],0.653
4,C[S+]([O-])c1ccc(-c2nc(-c3ccc(F)cc3)c(-c3ccncc3)[nH]2)cc1 (stereo unspecified),0.837
5,COc1ccccc1Oc1c(NS(=O)(=O)c2ccc(C(C)(C)C)cc2)nc(-c2ncccn2)nc1OCCO [Bosentan Hydrate],0.937
6,Cc1cc(=O)[nH]c(=S)[nH]1 [Methylthiouracil],0.561
7,Nc1nc(CC(=O)Nc2ccc(CCNC[C@H](O)c3ccccc3)cc2)cs1 [Mirabegron],0.376
8,CC[C@]1(O)C[C@H]2CN(CCc3c([nH]c4ccccc34)[C@@](C(=O)OC)(c3cc4c(cc3OC)N(C=O)[C@H]3[C@@](O)(C(=O)OC)[C@H](OC(C)=O)[C@]5(CC)C=CCN6CC[C@]43[C@@H]65)C2)C1 [Vincristine sulfate],1.68
9,COc1ccccc1OCC(O)CO (stereo unspecified) [Guaifenesin],0.15
10,Oc1ccc(/C=C/c2cc(O)cc(O)c2)cc1 [Resveratrol],0.091

# Following part.

row,SMILES,miR-132-3p level in NGN2-iNs
1,CC(NC(=O)C(Cc1ccccc1)NC(=O)OCc1ccccc1)C(=O)CF (stereo unspecified),-0.896
2,Cc1ccccc1C(=O)Nc1ccc(C(=O)N2CCCC(O)c3cc(Cl)ccc32)c(C)c1 (stereo unspecified) [Tolvaptan],-1.07
3,COc1cc2c(N3CCN(C(=O)Nc4ccc(OC(C)C)cc4)CC3)ncnc2cc1OCCCN1CCCCC1 [Tandutinib (MLN518)],0.219
4,Cc1cc(O)c2c(c1)C(=O)c1cccc(O)c1C2=O [Chrysophanic Acid],0.664
5,NC(=O)c1cn(Cc2c(F)cccc2F)nn1 [Rufinamide],-0.904
6,CC(C(=O)O)c1ccc(-c2ccccc2)c(F)c1 (stereo unspecified) [Flurbiprofen],0.975
7,Cc1c(OCC(F)(F)F)ccnc1C[S@@+]([O-])c1nc2ccccc2[nH]1 [Dexlansoprazole],-1.09
8,C[C@H]1O[C@@H](O[C@H]2[C@@H](O)C[C@H](O[C@H]3[C@@H](O)C[C@H](O[C@H]4CC[C@@]5(C)[C@H](CC[C@@H]6[C@@H]5C[C@@H](O)[C@]5(C)[C@@H](C7=CC(=O)OC7)CC[C@]65O)C4)O[C@@H]3C)O[C@@H]2C)C[C@H](O)[C@@H]1O [Digoxin],3.2
9,C[C@]1(O)C[C@@H](c2nc(-c3ccc4ccc(-c5ccccc5)nc4c3)c3c(N)nccn32)C1 [Linsitinib (OSI-906)],-0.106
10,O=C(C1CCCCC1)N1CC(=O)N2CCc3ccccc3C2C1 (stereo unspecified) [Praziquantel],0.531
11,C[C@@H]1CCO[C@H]2Cn3cc(C(=O)NCc4ccc(F)cc4F)c(=O)c(O)c3C(=O)N12,-0.872
12,CNC(=O)c1cc(Oc2ccc(NC(=O)Nc3cc(C(C)(C)C)nn3-c3ccc4ncccc4c3)c(F)c2)ccn1 [Rebastinib (DCC-2036)],0.263
13,CC(C)C[C@H](NC(=O)[C@@H](NC(=O)c1cccc(-c2ccccc2)n1)[C@@H](C)O)B(O)O,0.626
14,CN(C)CC(=O)Nc1ccc2[nH]c(=O)c3ccccc3c2c1,1.36
15,CNC(=O)c1cc(Oc2ccc(NC(=O)Nc3ccc(Cl)c(C(F)(F)F)c3)c(F)c2)ccn1 [Regorafenib (BAY 73-4506)],-0.6
16,O=C(O)c1cc(/N=N/c2ccc(O)c(C(=O)O)c2)ccc1O [Olsalazine Sodium],-0.805
17,O=C(CCc1ccc(O)cc1)c1c(O)cc(O)cc1O,-0.433
18,CC[C@H](C)[C@H](N)C1=N[C@H](C(=O)N[C@@H](CC(C)C)C(=O)N[C@H](CCC(=O)O)C(=O)N[C@H](C(=O)N[C@H]2CCCCNC(=O)[C@H](CC(N)=O)NC(=O)[C@@H](CC(=O)O)NC(=O)[C@H](Cc3cnc[nH]3)NC(=O)[C@@H](Cc3ccccc3)NC(=O)[C@H]([C@@H](C)CC)NC(=O)[C@@H](CCCN)NC2=O)[C@@H](C)CC)CS1 [Bacitracin],-1.15
